Assay results as given in the supplement of paper PMC10849652.
The other results are listed elsewhere or left out.

Sequences of proteins named here, by UniProt entry; tags and fusion partners are left off. A change or cut given only in a name is not applied to a line headed by its entry.
UniProt P16150: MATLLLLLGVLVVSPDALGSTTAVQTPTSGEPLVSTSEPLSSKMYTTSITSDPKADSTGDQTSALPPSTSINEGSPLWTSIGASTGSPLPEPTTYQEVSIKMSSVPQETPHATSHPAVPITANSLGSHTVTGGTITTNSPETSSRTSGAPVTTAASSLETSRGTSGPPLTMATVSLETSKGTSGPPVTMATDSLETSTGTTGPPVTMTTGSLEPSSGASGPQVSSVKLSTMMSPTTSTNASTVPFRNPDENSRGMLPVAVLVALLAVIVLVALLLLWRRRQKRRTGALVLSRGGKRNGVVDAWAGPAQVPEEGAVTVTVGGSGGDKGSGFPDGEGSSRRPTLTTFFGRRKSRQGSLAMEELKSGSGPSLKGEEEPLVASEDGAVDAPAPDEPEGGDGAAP
UniProt Q14849, whole entry, looked up: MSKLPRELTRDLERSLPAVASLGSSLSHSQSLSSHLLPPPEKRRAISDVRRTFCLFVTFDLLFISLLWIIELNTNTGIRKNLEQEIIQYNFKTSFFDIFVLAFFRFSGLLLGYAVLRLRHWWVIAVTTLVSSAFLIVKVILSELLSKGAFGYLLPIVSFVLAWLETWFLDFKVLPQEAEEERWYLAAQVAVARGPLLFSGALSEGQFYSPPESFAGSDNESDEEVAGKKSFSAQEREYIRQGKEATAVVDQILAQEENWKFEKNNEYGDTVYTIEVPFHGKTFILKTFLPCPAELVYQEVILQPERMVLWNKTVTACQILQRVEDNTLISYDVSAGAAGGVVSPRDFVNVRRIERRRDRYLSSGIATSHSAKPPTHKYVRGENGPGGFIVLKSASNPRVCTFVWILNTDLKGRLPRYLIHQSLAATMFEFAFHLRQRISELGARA
UniProt Q8N5C6: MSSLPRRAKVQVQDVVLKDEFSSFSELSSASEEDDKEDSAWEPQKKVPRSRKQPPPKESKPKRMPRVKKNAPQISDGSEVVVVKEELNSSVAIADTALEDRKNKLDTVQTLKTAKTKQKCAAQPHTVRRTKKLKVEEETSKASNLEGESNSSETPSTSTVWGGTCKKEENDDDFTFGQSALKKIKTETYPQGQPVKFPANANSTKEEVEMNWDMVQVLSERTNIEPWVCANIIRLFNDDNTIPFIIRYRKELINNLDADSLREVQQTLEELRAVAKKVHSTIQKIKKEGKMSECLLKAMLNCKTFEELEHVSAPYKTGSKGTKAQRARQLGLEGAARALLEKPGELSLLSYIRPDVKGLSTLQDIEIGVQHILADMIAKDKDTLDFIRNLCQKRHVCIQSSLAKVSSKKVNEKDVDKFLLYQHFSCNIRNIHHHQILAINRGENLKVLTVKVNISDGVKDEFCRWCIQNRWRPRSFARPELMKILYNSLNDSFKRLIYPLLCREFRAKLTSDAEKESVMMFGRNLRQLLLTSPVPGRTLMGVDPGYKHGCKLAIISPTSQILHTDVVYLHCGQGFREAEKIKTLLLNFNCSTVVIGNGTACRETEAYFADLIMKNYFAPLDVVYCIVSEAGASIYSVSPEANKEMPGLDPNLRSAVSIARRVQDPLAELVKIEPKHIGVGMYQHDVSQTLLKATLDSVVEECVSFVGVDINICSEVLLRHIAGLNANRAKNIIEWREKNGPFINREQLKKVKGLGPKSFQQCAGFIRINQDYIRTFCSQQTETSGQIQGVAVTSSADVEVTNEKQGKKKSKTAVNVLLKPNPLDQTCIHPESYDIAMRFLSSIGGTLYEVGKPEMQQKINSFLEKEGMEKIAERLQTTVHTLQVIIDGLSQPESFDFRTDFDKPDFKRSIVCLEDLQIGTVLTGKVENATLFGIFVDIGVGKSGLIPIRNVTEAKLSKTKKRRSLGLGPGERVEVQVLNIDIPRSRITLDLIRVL
UniProt P42224: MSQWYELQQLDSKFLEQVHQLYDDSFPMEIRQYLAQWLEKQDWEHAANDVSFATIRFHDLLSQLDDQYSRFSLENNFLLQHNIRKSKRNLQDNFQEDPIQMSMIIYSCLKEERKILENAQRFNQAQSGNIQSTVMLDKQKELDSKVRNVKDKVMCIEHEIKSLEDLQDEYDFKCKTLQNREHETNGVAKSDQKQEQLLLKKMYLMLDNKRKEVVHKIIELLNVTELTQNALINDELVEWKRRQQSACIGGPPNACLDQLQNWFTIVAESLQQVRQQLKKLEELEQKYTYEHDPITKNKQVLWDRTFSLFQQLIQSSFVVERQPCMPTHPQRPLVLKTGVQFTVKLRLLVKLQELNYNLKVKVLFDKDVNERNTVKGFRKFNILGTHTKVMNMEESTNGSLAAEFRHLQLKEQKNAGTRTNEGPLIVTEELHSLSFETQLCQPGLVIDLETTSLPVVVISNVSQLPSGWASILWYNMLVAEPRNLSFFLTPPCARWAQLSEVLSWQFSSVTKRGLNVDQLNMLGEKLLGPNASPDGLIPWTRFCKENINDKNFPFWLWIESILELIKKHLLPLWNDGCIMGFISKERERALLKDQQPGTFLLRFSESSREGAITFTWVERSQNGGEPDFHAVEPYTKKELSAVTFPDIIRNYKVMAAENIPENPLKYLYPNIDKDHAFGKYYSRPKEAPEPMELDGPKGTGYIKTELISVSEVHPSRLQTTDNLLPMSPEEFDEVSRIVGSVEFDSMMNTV
UniProt Q07955, whole entry, looked up: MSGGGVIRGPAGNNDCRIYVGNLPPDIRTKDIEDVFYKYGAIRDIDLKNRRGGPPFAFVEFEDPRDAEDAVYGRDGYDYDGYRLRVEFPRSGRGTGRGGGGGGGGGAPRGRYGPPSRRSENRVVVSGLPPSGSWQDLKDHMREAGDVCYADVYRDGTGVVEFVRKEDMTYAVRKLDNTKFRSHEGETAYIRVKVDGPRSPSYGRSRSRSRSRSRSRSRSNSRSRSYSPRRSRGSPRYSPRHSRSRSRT
UniProt P08240: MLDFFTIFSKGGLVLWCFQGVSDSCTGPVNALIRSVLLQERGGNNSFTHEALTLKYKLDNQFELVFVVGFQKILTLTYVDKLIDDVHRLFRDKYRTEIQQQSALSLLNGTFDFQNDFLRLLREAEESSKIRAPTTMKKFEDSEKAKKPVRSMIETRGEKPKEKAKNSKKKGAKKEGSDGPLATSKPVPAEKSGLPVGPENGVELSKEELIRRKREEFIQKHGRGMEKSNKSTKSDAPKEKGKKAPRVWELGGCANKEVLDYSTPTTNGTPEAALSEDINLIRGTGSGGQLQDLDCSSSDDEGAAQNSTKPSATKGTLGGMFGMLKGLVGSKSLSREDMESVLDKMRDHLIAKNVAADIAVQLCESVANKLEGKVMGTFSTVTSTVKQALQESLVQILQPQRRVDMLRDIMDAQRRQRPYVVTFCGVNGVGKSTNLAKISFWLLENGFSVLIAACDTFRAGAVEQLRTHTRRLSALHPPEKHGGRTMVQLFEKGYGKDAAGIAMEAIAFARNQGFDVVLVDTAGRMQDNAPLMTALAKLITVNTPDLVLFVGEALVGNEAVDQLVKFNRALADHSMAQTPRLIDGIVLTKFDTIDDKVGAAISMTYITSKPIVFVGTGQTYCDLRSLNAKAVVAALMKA
UniProt P84103: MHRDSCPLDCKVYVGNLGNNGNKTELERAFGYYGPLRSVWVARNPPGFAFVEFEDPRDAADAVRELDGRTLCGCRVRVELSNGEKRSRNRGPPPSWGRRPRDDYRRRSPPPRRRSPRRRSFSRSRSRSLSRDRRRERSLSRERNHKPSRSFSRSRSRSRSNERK
UniProt Q05519: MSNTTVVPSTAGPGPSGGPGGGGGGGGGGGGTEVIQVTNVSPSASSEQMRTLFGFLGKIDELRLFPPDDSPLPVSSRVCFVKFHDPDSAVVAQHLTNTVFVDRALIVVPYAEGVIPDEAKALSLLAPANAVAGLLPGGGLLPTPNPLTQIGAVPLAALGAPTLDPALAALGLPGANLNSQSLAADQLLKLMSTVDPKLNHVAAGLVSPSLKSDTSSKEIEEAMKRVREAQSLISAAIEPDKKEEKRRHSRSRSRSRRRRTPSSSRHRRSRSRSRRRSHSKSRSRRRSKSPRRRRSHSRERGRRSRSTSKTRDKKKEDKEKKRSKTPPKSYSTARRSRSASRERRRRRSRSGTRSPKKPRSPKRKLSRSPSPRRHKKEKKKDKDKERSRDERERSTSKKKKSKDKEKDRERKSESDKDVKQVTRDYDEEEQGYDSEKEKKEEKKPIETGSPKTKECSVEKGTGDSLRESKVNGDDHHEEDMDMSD
UniProt Q12772: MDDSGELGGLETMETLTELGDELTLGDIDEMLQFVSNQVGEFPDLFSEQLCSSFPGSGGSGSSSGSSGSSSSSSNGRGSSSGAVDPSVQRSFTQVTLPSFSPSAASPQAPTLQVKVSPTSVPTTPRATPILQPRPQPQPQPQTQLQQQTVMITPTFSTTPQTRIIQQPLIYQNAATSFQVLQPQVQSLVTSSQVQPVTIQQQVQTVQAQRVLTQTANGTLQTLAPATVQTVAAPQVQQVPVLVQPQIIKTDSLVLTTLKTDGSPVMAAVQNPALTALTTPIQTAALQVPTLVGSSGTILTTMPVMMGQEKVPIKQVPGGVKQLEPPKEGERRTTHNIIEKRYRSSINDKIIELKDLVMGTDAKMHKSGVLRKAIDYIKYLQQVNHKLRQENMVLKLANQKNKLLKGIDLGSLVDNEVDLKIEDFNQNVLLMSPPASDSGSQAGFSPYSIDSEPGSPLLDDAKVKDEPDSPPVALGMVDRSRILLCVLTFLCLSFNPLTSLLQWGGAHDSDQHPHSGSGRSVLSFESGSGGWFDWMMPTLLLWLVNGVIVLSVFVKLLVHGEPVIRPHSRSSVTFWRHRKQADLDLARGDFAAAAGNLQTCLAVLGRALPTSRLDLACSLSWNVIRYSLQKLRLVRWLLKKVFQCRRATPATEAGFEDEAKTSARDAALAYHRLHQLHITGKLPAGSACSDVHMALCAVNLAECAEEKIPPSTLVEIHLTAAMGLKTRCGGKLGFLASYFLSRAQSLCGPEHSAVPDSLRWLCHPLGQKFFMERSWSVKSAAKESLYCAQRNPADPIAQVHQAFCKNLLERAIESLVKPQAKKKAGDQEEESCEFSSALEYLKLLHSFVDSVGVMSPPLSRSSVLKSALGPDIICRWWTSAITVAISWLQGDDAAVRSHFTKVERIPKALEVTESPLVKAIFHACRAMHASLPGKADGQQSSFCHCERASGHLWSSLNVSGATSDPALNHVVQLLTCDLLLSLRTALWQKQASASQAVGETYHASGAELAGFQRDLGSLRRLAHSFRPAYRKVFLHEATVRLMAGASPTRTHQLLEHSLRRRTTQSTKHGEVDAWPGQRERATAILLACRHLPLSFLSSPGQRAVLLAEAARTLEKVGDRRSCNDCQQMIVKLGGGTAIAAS
UniProt Q9Y5M8: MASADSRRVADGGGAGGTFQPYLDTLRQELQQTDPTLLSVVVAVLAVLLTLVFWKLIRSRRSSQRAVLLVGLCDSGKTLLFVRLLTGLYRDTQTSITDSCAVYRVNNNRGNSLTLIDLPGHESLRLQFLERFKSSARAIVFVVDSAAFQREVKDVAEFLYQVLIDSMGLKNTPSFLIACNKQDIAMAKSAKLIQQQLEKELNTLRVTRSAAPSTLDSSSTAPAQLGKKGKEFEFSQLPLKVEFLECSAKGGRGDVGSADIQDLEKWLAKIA

Key:
Assay in all cases: log2 fold change, soluble protein after heating vs DMSO (PISA); higher = thermal stabilisation; K562 lysate, 10 uM; active = over 0.2 and 3.5 SD of the protein, either way, in both replicates (recomputed)
nilotinib = compound: Cc1cn(-c2cc(NC(=O)c3ccc(C)c(Nc4nccc(-c5cccnc5)n4)c3)cc(C(F)(F)F)c2)cn1 [nilotinib]
How it was run: (§1)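 Pellets of K562 cells were dounce-homogenised in PBS pH 7.4 with 1 mM MgCl2, and the crude extract was held at 1 mg/mL protein for a 30 min treatment with 10 μM compound. Aliquots were heated for 3 min over 48°C-58°C and pooled before NP-40 was added to 0.5% at 4°C. The supernatant from 21,000xg for 90 min was quantified by TMTpro 16plex LC-MS/MS with channel sums equalised. Values are reported from duplicates as log-two fold change in thermal stability relative to solvent controls.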

[1] = compound: Cc1nc(Nc2n[nH]c3c2CN(C(=O)N[C@H](CN(C)C)c2ccccc2)C3(C)C)c2sccc2n1
How it was run: as §1

dasatinib = compound: Cc1nc(Nc2ncc(C(=O)Nc3c(C)cccc3Cl)s2)cc(N2CCN(CCO)CC2)n1 [dasatinib]
How it was run: as §1

[2] = compound: Cc1ncc(-c2ccnc(Nc3ccc(S(C)(=O)=O)cc3)n2)n1C(C)C
How it was run: as §1

[3] = compound: Cn1cc(-c2ccc3c(c2)CCN3C(=O)Cc2cccc(C(F)(F)F)c2)c2c(N)ncnc21
How it was run: as §1

quisinostat = compound: Cn1cc(CNCC2CCN(c3ncc(C(=O)NO)cn3)CC2)c2ccccc21 [quisinostat]
How it was run: as §1

tipifarnib = compound: Cn1cncc1[C@@](N)(c1ccc(Cl)cc1)c1ccc2c(c1)c(-c1cccc(Cl)c1)cc(=O)n2C [tipifarnib]
How it was run: as §1

[4] = compound: NC(=O)Nc1cc(-c2cccc(F)c2)sc1C(=O)N[C@H]1CCCNC1
How it was run: as §1

[5] = compound: NC(=O)c1cnc(N[C@@H]2CCCC[C@@H]2N)nc1Nc1cccc(-n2nccn2)c1
How it was run: as §1

[6] = compound: NC1(c2ccc(-c3nc4ccn5c(=O)[nH]nc5c4cc3-c3ccccc3)cc2)CCC1
How it was run: as §1

[7] = compound: NCC(=O)Nc1ccc(-n2nc(C(F)(F)F)cc2-c2ccc3c(ccc4ccccc43)c2)cc1
How it was run: as §1

vorinostat = compound: O=C(CCCCCCC(=O)Nc1ccccc1)NO [vorinostat]
How it was run: as §1

silmitasertib = compound: O=C(O)c1ccc2c(c1)nc(Nc1cccc(Cl)c1)c1ccncc12 [silmitasertib]
How it was run: as §1

[8] = compound: O=C1NC(=O)C(c2cnc3ccccn23)=C1c1cn2c3c(cc(F)cc13)CN(C(=O)N1CCCCC1)CC2
How it was run: as §1

entospletinib = compound: c1cn2cc(-c3ccc4cn[nH]c4c3)nc(Nc3ccc(N4CCOCC4)cc3)c2n1 [entospletinib]
How it was run: as §1

Q: With SPN (UniProt P16150) as the target, how does the log2 fold change (nilotinib) read?
A: inactive: 0.007

Q: What about the log2 fold change [1] of the same target?
A: inactive: 0.032

Q: And the log2 fold change (dasatinib)?
A: inactive: 0.007

Q: And the log2 fold change [2]?
A: inactive: 0.005

Q: What about the log2 fold change [3] of the same target?
A: inactive: 0.008

Q: And the log2 fold change (quisinostat)?
A: inactive: -0.009

Q: And the log2 fold change (tipifarnib)?
A: inactive: -0.028

Q: And the log2 fold change [4]?
A: inactive: 0.004

Q: What about the log2 fold change [5] of the same target?
A: inactive: 0.007

Q: What about the log2 fold change [6] of the same target?
A: inactive: -0.003

Q: And the log2 fold change [7]?
A: inactive: -0.004

Q: And the log2 fold change (vorinostat)?
A: inactive: 0.1

Q: What about the log2 fold change (silmitasertib) of the same target?
A: inactive: 0.003

Q: And the log2 fold change [8]?
A: inactive: -0.013

Q: And the log2 fold change (entospletinib)?
A: inactive: -0.023

Q: Which log2 fold change (nilotinib) does the source give for STARD3 isoform 3 (UniProt Q14849) here?
A: inactive: -0.06

Q: What about the log2 fold change [1] of the same target?
A: inactive: -0.008

Q: What about the log2 fold change (dasatinib) of the same target?
A: active: 0.272

Q: And the log2 fold change [2]?
A: inactive: 0.063

Q: And the log2 fold change [3]?
A: inactive: 0.02

Q: And the log2 fold change (quisinostat)?
A: inactive: 0.027

Q: What about the log2 fold change (tipifarnib) of the same target?
A: inactive: -0.047

Q: And the log2 fold change [4]?
A: inactive: -0.039

Q: And the log2 fold change [5]?
A: inactive: 0.015

Q: And the log2 fold change [6]?
A: inactive: 0.026

Q: And the log2 fold change [7]?
A: inactive: 0.022

Q: What about the log2 fold change (vorinostat) of the same target?
A: inactive: 0.065

Q: What about the log2 fold change (silmitasertib) of the same target?
A: inactive: 0.047

Q: What about the log2 fold change [8] of the same target?
A: inactive: 0.03

Q: What about the log2 fold change (entospletinib) of the same target?
A: inactive: -0.025

Q: Which results are given for SRBD1 (UniProt Q8N5C6)?
A: log2 fold change (nilotinib): inactive: 0.003; log2 fold change [1]: inactive: 0.019; log2 fold change (dasatinib): inactive: 0.052; log2 fold change [2]: inactive: 0.055; log2 fold change [3]: inactive: -0.004; log2 fold change (quisinostat): inactive: -0.062; log2 fold change (tipifarnib): inactive: 0.055; log2 fold change [4]: inactive: -0.004; log2 fold change [5]: inactive: -0.111; log2 fold change [6]: inactive: -0.101; log2 fold change [7]: inactive: 0.013; log2 fold change (vorinostat): inactive: 0.04; log2 fold change (silmitasertib): inactive: 0.012; log2 fold change [8]: inactive: -0.018; log2 fold change (entospletinib): inactive: 0.009

Q: Which log2 fold change (nilotinib) does the source give for STAT1 (UniProt P42224) here?
A: inactive: -0.047

Q: What about the log2 fold change [1] of the same target?
A: inactive: 0.014

Q: What about the log2 fold change (dasatinib) of the same target?
A: inactive: -0.042

Q: And the log2 fold change [2]?
A: inactive: -0.01

Q: What about the log2 fold change [3] of the same target?
A: inactive: 0.005

Q: And the log2 fold change (quisinostat)?
A: inactive: -0.054

Q: What about the log2 fold change (tipifarnib) of the same target?
A: inactive: -0.007

Q: What about the log2 fold change [4] of the same target?
A: inactive: 0.048

Q: What about the log2 fold change [5] of the same target?
A: inactive: -0.004

Q: And the log2 fold change [6]?
A: inactive: -0.024

Q: And the log2 fold change [7]?
A: inactive: -0.012

Q: What about the log2 fold change (vorinostat) of the same target?
A: inactive: -0.186

Q: And the log2 fold change (silmitasertib)?
A: inactive: 0.022

Q: And the log2 fold change [8]?
A: inactive: 0.02

Q: And the log2 fold change (entospletinib)?
A: inactive: 0.045

Q: How did the log2 fold change (nilotinib) turn out when SRSF1 (UniProt Q07955) was run?
A: inactive: -0.023

Q: What about the log2 fold change [1] of the same target?
A: inactive: -0.003

Q: And the log2 fold change (dasatinib)?
A: inactive: 0.037

Q: And the log2 fold change [2]?
A: inactive: -0.013

Q: What about the log2 fold change [3] of the same target?
A: inactive: -0.004

Q: What about the log2 fold change (quisinostat) of the same target?
A: inactive: -0.057

Q: What about the log2 fold change (tipifarnib) of the same target?
A: inactive: -0.015

Q: And the log2 fold change [4]?
A: inactive: -0.016

Q: And the log2 fold change [5]?
A: inactive: 0.045

Q: What about the log2 fold change [6] of the same target?
A: inactive: -0.022

Q: And the log2 fold change [7]?
A: inactive: 0.041

Q: And the log2 fold change (vorinostat)?
A: inactive: 0.092

Q: What about the log2 fold change (silmitasertib) of the same target?
A: inactive: -0.02

Q: What about the log2 fold change [8] of the same target?
A: inactive: -0.039

Q: What about the log2 fold change (entospletinib) of the same target?
A: inactive: 0.012

Q: Which log2 fold change (nilotinib) does the source give for SRPRA (UniProt P08240) here?
A: inactive: -0.002

Q: What about the log2 fold change [1] of the same target?
A: inactive: 0.01

Q: What about the log2 fold change (dasatinib) of the same target?
A: inactive: 0.003

Q: What about the log2 fold change [2] of the same target?
A: inactive: -0.028

Q: What about the log2 fold change [3] of the same target?
A: inactive: -0.01

Q: What about the log2 fold change (quisinostat) of the same target?
A: inactive: -0.019

Q: What about the log2 fold change (tipifarnib) of the same target?
A: inactive: -0.026

Q: What about the log2 fold change [4] of the same target?
A: inactive: 0

Q: What about the log2 fold change [5] of the same target?
A: inactive: 0.023

Q: What about the log2 fold change [6] of the same target?
A: inactive: 0.033

Q: And the log2 fold change [7]?
A: inactive: -0.007

Q: And the log2 fold change (vorinostat)?
A: inactive: -0.217

Q: And the log2 fold change (silmitasertib)?
A: inactive: -0.022

Q: What about the log2 fold change [8] of the same target?
A: inactive: -0.047

Q: What about the log2 fold change (entospletinib) of the same target?
A: inactive: -0.04

Q: Which log2 fold change (nilotinib) does the source give for SRSF3 (UniProt P84103) here?
A: inactive: -0.003

Q: What about the log2 fold change [1] of the same target?
A: inactive: -0.028

Q: And the log2 fold change (dasatinib)?
A: inactive: -0.04

Q: What about the log2 fold change [2] of the same target?
A: inactive: -0.05

Q: And the log2 fold change [3]?
A: inactive: 0.007

Q: What about the log2 fold change (quisinostat) of the same target?
A: inactive: 0.025

Q: And the log2 fold change (tipifarnib)?
A: inactive: 0.035

Q: And the log2 fold change [4]?
A: inactive: -0.117

Q: And the log2 fold change [5]?
A: inactive: 0.011

Q: And the log2 fold change [6]?
A: inactive: 0.089

Q: And the log2 fold change [7]?
A: inactive: -0.053

Q: And the log2 fold change (vorinostat)?
A: inactive: -0.053

Q: And the log2 fold change (silmitasertib)?
A: inactive: 0.003

Q: And the log2 fold change [8]?
A: inactive: 0.003

Q: What about the log2 fold change (entospletinib) of the same target?
A: inactive: -0.045

Q: How did the log2 fold change (nilotinib) turn out when SRSF11 (UniProt Q05519) was run?
A: inactive: 0.016

Q: What about the log2 fold change [1] of the same target?
A: inactive: -0.046

Q: And the log2 fold change (dasatinib)?
A: inactive: -0.032

Q: And the log2 fold change [2]?
A: inactive: 0.002

Q: What about the log2 fold change [3] of the same target?
A: inactive: -0.008

Q: And the log2 fold change (quisinostat)?
A: inactive: 0.04

Q: What about the log2 fold change (tipifarnib) of the same target?
A: inactive: 0.012

Q: And the log2 fold change [4]?
A: inactive: -0.036

Q: And the log2 fold change [5]?
A: inactive: 0.002

Q: What about the log2 fold change [6] of the same target?
A: inactive: 0.037

Q: And the log2 fold change [7]?
A: inactive: 0.007

Q: What about the log2 fold change (vorinostat) of the same target?
A: inactive: 0.121

Q: And the log2 fold change (silmitasertib)?
A: inactive: -0.018

Q: And the log2 fold change [8]?
A: inactive: 0.005

Q: What about the log2 fold change (entospletinib) of the same target?
A: inactive: 0.022

Q: Which log2 fold change (nilotinib) does the source give for SREBF2 (UniProt Q12772) here?
A: inactive: 0.022

Q: What about the log2 fold change [1] of the same target?
A: inactive: 0.005

Q: What about the log2 fold change (dasatinib) of the same target?
A: inactive: -0.192

Q: And the log2 fold change [2]?
A: inactive: -0.008

Q: What about the log2 fold change [3] of the same target?
A: inactive: -0.039

Q: And the log2 fold change (quisinostat)?
A: inactive: -0.078

Q: And the log2 fold change (tipifarnib)?
A: inactive: -0.003

Q: And the log2 fold change [4]?
A: inactive: -0.05

Q: What about the log2 fold change [5] of the same target?
A: inactive: -0.017

Q: What about the log2 fold change [6] of the same target?
A: inactive: 0.005

Q: And the log2 fold change [7]?
A: inactive: 0.084

Q: And the log2 fold change (vorinostat)?
A: inactive: -0.087

Q: And the log2 fold change (silmitasertib)?
A: inactive: -0.001

Q: And the log2 fold change [8]?
A: inactive: -0.054

Q: And the log2 fold change (entospletinib)?
A: inactive: -0.213

Q: SRPRB (UniProt Q9Y5M8) was tested. Which log2 fold change (nilotinib) did it give?
A: inactive: 0.006

Q: What about the log2 fold change [1] of the same target?
A: inactive: 0.015

Q: And the log2 fold change (dasatinib)?
A: inactive: -0.035

Q: What about the log2 fold change [2] of the same target?
A: inactive: -0.053

Q: What about the log2 fold change [3] of the same target?
A: inactive: -0.012

Q: And the log2 fold change (quisinostat)?
A: inactive: 0.018

Q: What about the log2 fold change (tipifarnib) of the same target?
A: inactive: -0.04

Q: And the log2 fold change [4]?
A: inactive: -0.024

Q: And the log2 fold change [5]?
A: inactive: -0.006

Q: And the log2 fold change [6]?
A: inactive: 0.034

Q: What about the log2 fold change [7] of the same target?
A: inactive: 0.013

Q: What about the log2 fold change (vorinostat) of the same target?
A: inactive: 0.018

Q: And the log2 fold change (silmitasertib)?
A: inactive: 0.036

Q: And the log2 fold change [8]?
A: inactive: -0.029

Q: And the log2 fold change (entospletinib)?
A: inactive: -0.027
